In US20250163121A1 (AKSTON BIOSCIENCES, published 2025):
These are yes or no findings as the source states them, for the method shown. Some results given as binding are weak or reduced against the parent protein; the word gives no strength. Where a sequence is shown, tags or fusion partners need not be part of it. Each block holds one binder with its values, some of them ahead of it.

The chains behind the UniProt entries cited, without tags or fusion partners. Residues count along the entry.
UniProt P06213, residues 28-1382: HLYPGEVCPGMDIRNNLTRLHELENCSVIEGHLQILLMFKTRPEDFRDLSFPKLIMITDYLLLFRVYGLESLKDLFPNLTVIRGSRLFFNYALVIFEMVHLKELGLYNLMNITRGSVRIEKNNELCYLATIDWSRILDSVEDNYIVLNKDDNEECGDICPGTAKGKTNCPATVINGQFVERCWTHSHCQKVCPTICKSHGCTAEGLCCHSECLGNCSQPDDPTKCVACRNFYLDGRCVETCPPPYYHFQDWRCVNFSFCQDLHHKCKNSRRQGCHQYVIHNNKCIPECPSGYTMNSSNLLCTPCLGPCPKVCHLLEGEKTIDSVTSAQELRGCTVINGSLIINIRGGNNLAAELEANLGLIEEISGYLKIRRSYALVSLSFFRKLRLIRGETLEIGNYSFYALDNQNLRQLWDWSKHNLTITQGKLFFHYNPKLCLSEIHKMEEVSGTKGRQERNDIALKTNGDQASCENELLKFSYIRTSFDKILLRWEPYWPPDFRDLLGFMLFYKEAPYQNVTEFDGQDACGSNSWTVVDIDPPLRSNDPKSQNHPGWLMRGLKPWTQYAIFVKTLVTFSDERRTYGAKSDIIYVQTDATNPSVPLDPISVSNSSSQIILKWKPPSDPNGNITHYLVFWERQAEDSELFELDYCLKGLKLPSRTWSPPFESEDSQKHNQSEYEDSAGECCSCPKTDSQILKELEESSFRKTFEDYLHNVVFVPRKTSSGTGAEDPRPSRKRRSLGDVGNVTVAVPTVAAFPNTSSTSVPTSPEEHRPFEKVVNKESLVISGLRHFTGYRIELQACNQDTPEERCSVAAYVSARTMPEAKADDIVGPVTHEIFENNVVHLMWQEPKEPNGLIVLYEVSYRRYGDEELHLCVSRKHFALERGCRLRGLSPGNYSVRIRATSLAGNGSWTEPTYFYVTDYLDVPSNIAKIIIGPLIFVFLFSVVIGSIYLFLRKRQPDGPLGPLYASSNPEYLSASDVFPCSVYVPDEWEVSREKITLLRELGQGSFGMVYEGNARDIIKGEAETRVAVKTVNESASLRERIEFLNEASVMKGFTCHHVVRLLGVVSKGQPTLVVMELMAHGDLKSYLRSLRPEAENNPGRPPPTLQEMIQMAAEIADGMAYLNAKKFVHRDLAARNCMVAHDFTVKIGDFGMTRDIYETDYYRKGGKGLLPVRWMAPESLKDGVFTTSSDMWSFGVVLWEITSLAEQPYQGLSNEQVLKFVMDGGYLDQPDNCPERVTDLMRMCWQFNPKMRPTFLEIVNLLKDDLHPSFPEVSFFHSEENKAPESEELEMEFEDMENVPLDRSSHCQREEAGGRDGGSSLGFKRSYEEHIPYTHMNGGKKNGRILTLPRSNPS

Target: human insulin receptor (on human IM-9 cells) (human) (UniProt P06213)
Assay: competition with biotinylated RHI on human IM-9 cells, flow cytometry, 4 C

binding: binds
B1: insulin-Fc fusion protein of SEQ ID NO: 29 (SEQ ID NO: 26 with the mutation cNg-NB139-S; canine IgGB Fc fragment SEQ ID NO: 15) (Fc fusion)
chain: FVNQHLCGSDLVEALALVCGERGFFYTDPTGGGPRRGIVEQCCHSICSLYQLENYCNGGGGAGGGGDCPKCPAPEMLGGPSVFIFPPKPKDTLLIARTPEVTCVVVDLDPEDPEVQISWFVDGKQMQTAKTQPREEQFSGTYRVVSVLPIGHQDWLKGKQFTCKVNNKALPSPIERTISKARGQAHQPSVYVLPPSREELSKNTVSLTCLIKDFFPPDIDVEWQSNGQQEPESKYRTTPPQLDEDGSYFLYSKLSVDKSRWQRGDTFICAVMHEALHNHYTQESLSHSPG
notes: Non-glycosylated homodimer made in HEK293 cells; 98.3% homodimer; also called cNg-S

binding: binds
B2: insulin-Fc fusion protein of SEQ ID NO: 31 (SEQ ID NO: 26 with des hinge D and the mutation cNg-NB138-K; canine IgGB Fc fragment SEQ ID NO: 16) (Fc fusion)
chain: FVNQHLCGSDLVEALALVCGERGFFYTDPTGGGPRRGIVEQCCHSICSLYQLENYCNGGGGAGGGGCPKCPAPEMLGGPSVFIFPPKPKDTLLIARTPEVTCVVVDLDPEDPEVQISWFVDGKQMQTAKTQPREEQFKGTYRVVSVLPIGHQDWLKGKQFTCKVNNKALPSPIERTISKARGQAHQPSVYVLPPSREELSKNTVSLTCLIKDFFPPDIDVEWQSNGQQEPESKYRTTPPQLDEDGSYFLYSKLSVDKSRWQRGDTFICAVMHEALHNHYTQESLSHSPG
notes: Non-glycosylated homodimer made in HEK293 cells; 98.1% homodimer; also called cNg-K with des hinge D
